For at least one entry, the source does not settle the construct or the ends of the probe. For part of these data: The comparison behind a weaker result is the experiment's own reference, which may not be listed here.

The text below walks through data of publication doi:10.1101/2025.04.08.647572.

Common to all, as to assay: fluorescence anisotropy
Common to all, as to details: 50 mM NaCl

For data set [1], the system named is OBMg group 2 (Moorella glycerini).
Data set [2] has as its system OBMg N103A (Moorella glycerini).
Data set [3] relates to OBMg K121A (Moorella glycerini).
Data set [4] relates to OBMg group 3 (Moorella glycerini).
The subject of data set [5] is OBMg group 1 (Moorella glycerini).
In data set [6] the test system is OBMg H120A (Moorella glycerini).

Take “GTTCGCAACGAA (double strand) [12 bp FAM-dsDNA]”: the binding result in data set [1] was “binds more weakly”; in data set [2] it was “binds”; in data set [3], “binds”; in data set [4], “binds more weakly”; in data set [5], “binds more weakly”; in data set [6] it was “binds”.
